Source: PubChem BioAssay AID2551 (National Center for Advancing Translational Sciences (NCATS), 2010)
Screen size: about 310,000 compounds; about 17,000 (5.5%) were called active. The shares of active, inactive and inconclusive entries below differ from those in the screen. Calls follow the shape of the dose curve; as a rule, active = well fitted inhibition curve with a large enough effect; inconclusive = small, poorly fitted or top-dose-only effect, or effect the other way; inactive = no such curve, though single readings can be large or run the other way. Where the call is inconclusive, the potency comes from a doubtful curve fit.

Sequences of proteins named here, by UniProt entry; tags and fusion partners are left off. A change or cut given only in a name is not applied to a line headed by its entry.
UniProt P51450: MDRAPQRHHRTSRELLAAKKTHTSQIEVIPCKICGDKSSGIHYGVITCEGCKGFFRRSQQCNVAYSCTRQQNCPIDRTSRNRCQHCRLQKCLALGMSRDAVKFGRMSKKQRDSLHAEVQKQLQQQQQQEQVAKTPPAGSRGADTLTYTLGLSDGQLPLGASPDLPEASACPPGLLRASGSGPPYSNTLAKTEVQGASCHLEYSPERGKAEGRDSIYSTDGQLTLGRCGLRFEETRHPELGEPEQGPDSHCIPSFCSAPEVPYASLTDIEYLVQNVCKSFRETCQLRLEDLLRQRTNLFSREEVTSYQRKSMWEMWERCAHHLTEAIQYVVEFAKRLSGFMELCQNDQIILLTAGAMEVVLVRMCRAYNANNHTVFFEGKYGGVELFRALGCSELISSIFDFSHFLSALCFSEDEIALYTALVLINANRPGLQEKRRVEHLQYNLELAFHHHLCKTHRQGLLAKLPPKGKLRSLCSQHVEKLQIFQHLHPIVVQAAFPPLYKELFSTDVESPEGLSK

Molecular target: Nuclear receptor ROR-gamma (Mus musculus) (UniProt P51450)
Test: qHTS for inhibitors of ROR gamma transcriptional activity; also: nearly all actives have a fitted effect of over 60% in size
Settings: Drosophila S2 Gal4-RORgamma UAS-luciferase reporter, 20 h; activity change, negative = inhibition: at 53.6 µM (top of the series)
Outline: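 Drosophila Schneider cells stably carrying a metallothionein-driven Gal4 DBD–ROR gamma fusion and a UAS-Photinus luciferase reporter were exposed to compound for 1 hr, then induced with copper sulfate (700 uM final) for 20 hr at ambient temperature before luminescence reading.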
% is scaled to controls: 0 for no effect and ±100 for the full control effect; potency is read from the fitted curve at half-maximal effect.

Q: Which Potency does the source give for CC(C)(C)NC(=S)NNC(=O)c1ccc2ncccc2c1 here?
A: inconclusive: 20 µM [inhibitor, partial curve, poor fit]

Q: For COc1ccccc1/C=N/NC(=O)CC(=O)NCc1ccccc1, which Potency is on record?
A: inactive

Q: With COc1cccc(/C=N/Nc2cc(-n3nc(C)cc3-c3ccccc3)ncn2)c1O as the compound, how does the Potency read?
A: inconclusive: 0.891 µM [inhibitor, single point]

Q: For Cc1ccc(N2C(=O)C(CN3CCOCC3)C2c2ccccc2)cc1 (stereo unspecified), which Potency is on record?
A: inconclusive: 17.8 µM [inhibitor, single point]

Q: For CCN(CC)S(=O)(=O)c1ccc(C)c(NC(=O)Cn2c(=O)cnc3ccccc32)c1, which Potency is on record?
A: inconclusive: 28.2 µM [activator, single point]

Q: O=C(/C=C/c1ccc(Cl)cc1Cl)N1CCN(c2ccc([N+](=O)[O-])c(N3CCOCC3)c2)CC1 was tested. Which Potency did it give?
A: inactive

Q: How did the Potency turn out when c1ccc(-c2nc3cc4ccccc4cc3[nH]2)nc1 was run?
A: active: 2.82 µM

Q: Which Potency does the source give for CCN1C(=O)C(=Cc2cccc(OC)c2Oc2ccc([N+](=O)[O-])cc2[N+](=O)[O-])SC1=S here?
A: inconclusive: 15.8 µM [inhibitor, single point]

Q: With CCc1ccc2oc(-c3cc(N)cc(C)c3O)nc2c1 as the compound, how does the Potency read?
A: inconclusive: 31.6 µM [inhibitor, single point]

Q: Brc1ccc(OCCCOc2cccc3cccnc23)cc1 was tested. Which Potency did it give?
A: inconclusive: 31.6 µM [inhibitor, single point]

Q: For Nc1nc2ccccc2n1CCOc1ccccc1Cl, which Potency is on record?
A: inconclusive: 11.2 µM [inhibitor, partial curve]

Q: Cc1ccc(C(=O)CNc2cccc(Cl)c2)cc1 was tested. Which Potency did it give?
A: inactive

Q: How did the Potency turn out when Cc1ccc(-n2nc(C(=O)N3CCOCC3)cc2-c2ccc(Cl)cc2)cc1 was run?
A: inconclusive: 35.5 µM [inhibitor, single point]

Q: CCCCn1c(SCC(=O)OCC)nc2c1c(=O)[nH]c(=O)n2C was tested. Which Potency did it give?
A: inactive

Q: For CC(=O)COc1cccc2ccc(/C=C/c3ccc(Br)s3)nc12, which Potency is on record?
A: inconclusive: 35.5 µM [activator, single point]

Q: O=C(CSc1nnc(COc2cccc3cccnc23)o1)N1CCN(C(=O)c2ccco2)CC1 was tested. Which Potency did it give?
A: inconclusive: 0.794 µM [inhibitor, single point]

Q: S=P(N1CC1)(N1CC1)N1CC1 was tested. Which Potency did it give?
A: inactive

Q: With CC(C)(C)c1ccc(/C([O-])=C(/C(=S)NCc2ccco2)[n+]2ccccc2)cc1 as the compound, how does the Potency read?
A: inactive

Q: Which Potency does the source give for Fc1ccccc1CNc1ccc(Cl)c(Cl)c1 here?
A: inconclusive: 12.6 µM [activator, partial curve]

Q: With Fc1ccccc1N1CCN(c2ncnc3nc[nH]c23)CC1 as the compound, how does the Potency read?
A: inactive

Q: For CSc1ncccc1C(=O)N1CCCC(C(=O)c2ccc3ccccc3c2)C1 (stereo unspecified), which Potency is on record?
A: inconclusive: 12.6 µM [activator, single point]

Q: Cc1cc(Sc2nnc(/N=C/N(C)C)s2)c2ccccc2n1 was tested. Which Potency did it give?
A: active: 8.91 µM

Q: With COc1ccc(NC(=O)c2ccc3ccccc3n2)cc1S(=O)(=O)N1CCCCC1 as the compound, how does the Potency read?
A: inconclusive: 11.2 µM [activator, partial curve]

Q: COC(=O)N1[C@H](C)C=C[C@]1(Cc1ccccc1)C(=O)NCc1ccc(N(C)C)cc1 was tested. Which Potency did it give?
A: inactive

Q: Which activity change, negative = inhibition does the source give for COC(=O)CSc1n[nH]c(-c2ccncc2)n1 here?
A: inactive: -5.74% [at 0.365 µM]

Q: COc1ccc(NC(=O)c2ccc3c(=O)n(-c4ccc(OC)cc4OC)c(=S)[nH]c3c2)cc1 was tested. Which Potency did it give?
A: active: 5.01 µM

Q: N#Cc1c(-c2ccc3c(c2)OCO3)ccn2nc(-c3cccc(C(F)(F)F)c3)nc12 was tested. Which Potency did it give?
A: inconclusive: 1.78 µM [activator, partial curve]

Q: For CCCCOC(=O)c1[nH]c2c(c1C)C(=O)CC(c1cc(OC)c(OC)c(OC)c1)C2 (stereo unspecified), which Potency is on record?
A: inconclusive: 22.4 µM [activator, partial curve]

Q: Which Potency does the source give for COc1ccc(-c2noc(CCCC(=O)NC3CCCC3)n2)cc1 here?
A: active: 4.47 µM

Q: COc1ccc2cc3c(N)c(C(=O)NCc4ccco4)sc3nc2c1 was tested. Which Potency did it give?
A: inconclusive: 3.55 µM [activator, partial curve]

Q: COc1ccc(NC(=O)NCCCN2CCCC2=O)cc1 was tested. Which Potency did it give?
A: inconclusive: 5.62 µM [activator, single point]

Q: Which Potency does the source give for CCc1ccc(N2CN(CCc3ccccc3)CNC2=S)cc1 here?
A: active: 1.26 µM

Q: Which Potency does the source give for CNC(=S)NNC(=O)c1sccc1OCc1ccccc1 here?
A: inconclusive: 12.6 µM [inhibitor, single point]

Q: CCS(=O)(=O)N1Cc2ccccc2CC1C(=O)Nc1nc2ccc(C)cc2s1 (stereo unspecified) was tested. Which Potency did it give?
A: active: 1.26 µM

Q: With O=C(Nc1nnc(S(=O)(=O)N2CCCCCC2)s1)c1ccccc1Cl as the compound, how does the Potency read?
A: inconclusive: 22.4 µM [activator, single point]

Q: For Cc1cccc(NC(=S)NC(=O)C2CC2)c1, which Potency is on record?
A: active: 7.94 µM

Q: How did the Potency turn out when Cc1n[nH]c(=O)nc1N/N=C/c1cccs1 was run?
A: active: 5.01 µM

Q: How did the Potency turn out when O=C(NCc1cccnc1)/C(=C\c1ccc(-c2ccc(Cl)c(Cl)c2)o1)S(=O)(=O)c1ccccc1 was run?
A: active: 8.91 µM

Q: COc1cccc(C(=O)O/N=C(\N)c2ccccn2)c1 was tested. Which Potency did it give?
A: inconclusive: 10 µM [inhibitor, partial curve, poor fit]

Q: CCCCN(CC)S(=O)(=O)c1ccc(C(=O)Nc2nnc(-c3ccccc3Cl)o2)cc1 was tested. Which Potency did it give?
A: inconclusive: 0.447 µM [inhibitor, full curve, poor fit]

Q: Which Potency does the source give for O=C(CCN1C(=O)/C(=C/c2ccco2)SC1=S)Nc1ccc(O)cc1C(=O)O here?
A: inactive

Q: With CCN(C(=O)COC(=O)c1cc(C)n(-c2ccc(F)cc2)c1C)C1CCS(=O)(=O)C1 (stereo unspecified) as the compound, how does the Potency read?
A: inconclusive: 15.8 µM [inhibitor, partial curve, poor fit]

Q: With C/C(CC(=O)Nc1cc(C)ccn1)=N\NC(=O)c1cccc(C)c1 as the compound, how does the Potency read?
A: active: 11.2 µM

Q: CCOc1ccc(Nc2nc3c(c(=O)[nH]2)CCC3)cc1 was tested. Which Potency did it give?
A: inconclusive: 10 µM [activator, partial curve, poor fit]

Q: CCOc1ccc(-c2ccc(SCC)nn2)cc1 was tested. Which Potency did it give?
A: inconclusive: 20 µM [inhibitor, single point]

Q: How did the Potency turn out when CCOC(=O)c1csc(NC(=O)c2ccccc2)n1 was run?
A: inconclusive: 0.631 µM [activator, full curve, poor fit]

Q: How did the Potency turn out when O=C(Nc1nccs1)c1cc(Cl)nc2ccccc12 was run?
A: active: 17.8 µM

Q: With COc1ccc(O)c(/C=N/NC(=O)c2ccc(N3CCCC3=O)cc2)c1 as the compound, how does the Potency read?
A: active: 2.24 µM

Q: O=c1c2cc(NC(=S)N3CCCC3)ccc2nc2n1CCCCC2 was tested. Which Potency did it give?
A: inactive

Q: CNC(=S)NNC(=O)c1ccc(=O)n(Cc2cccc(C(F)(F)F)c2)c1 was tested. Which Potency did it give?
A: inconclusive: 8.91 µM [inhibitor, partial curve]

Q: O=c1oc2ccccc2c(NCc2cccc(F)c2)c1[N+](=O)[O-] was tested. Which Potency did it give?
A: inconclusive: 35.5 µM [activator, single point]

Q: For O=C(O)COn1c(-c2ccc(Cl)cc2)nc2ccc(Cl)cc21, which Potency is on record?
A: inactive

Q: How did the Potency turn out when C/C=C/C(=O)[C@@H](C)[C@@H](/C=C/C[Si](C)(C)C)C(C)C was run?
A: inactive

Q: For Cn1cc(/C=C(\C#N)C(=O)Nc2ncc(Cc3ccc(Cl)cc3)s2)c2ccccc21, which Potency is on record?
A: active: 2 µM

Q: With COC(=O)[C@H](Cc1ccccc1)NC(=O)N1CCN(Cc2ccccc2)CC1 as the compound, how does the Potency read?
A: inconclusive: 11.2 µM [activator, partial curve, poor fit]

Q: How did the Potency turn out when CC(C)=CCc1c(O)c(CC=C(C)C)c2c(c1O)C(=O)CC(c1ccc(O)cc1)O2 (stereo unspecified) was run?
A: inconclusive: 11.2 µM [activator, single point]

Q: With Cc1ccc(OS(=O)(=O)c2ccc(N3C(=O)CCC3=O)cc2)cc1 as the compound, how does the Potency read?
A: inconclusive: 17.8 µM [activator, single point]

Q: With O=C(N/N=C/c1cccc([N+](=O)[O-])c1)C1CC1c1ccccc1 (stereo unspecified) as the compound, how does the Potency read?
A: inconclusive: 35.5 µM [activator, single point]

Q: With CCOC(=O)N/N=C(\C)c1ccccc1OC(F)F as the compound, how does the Potency read?
A: inactive

Q: Which Potency does the source give for Cc1ccc(Nc2cc(C)nc3ncnn23)c(C)c1 here?
A: inconclusive: 1.26 µM [inhibitor, single point]

Q: For Fc1ccc(NC(=S)Nc2ccc(Cl)cc2)cc1, which Potency is on record?
A: inconclusive: 20 µM [inhibitor, single point]

Q: How did the Potency turn out when CCCn1cnc2c(N)c(C)c(C)cc21 was run?
A: inconclusive: 22.4 µM [inhibitor, partial curve, poor fit]

Q: How did the Potency turn out when Cc1ccc(OCCn2c(C3CC(=O)N(Cc4ccccc4)C3)nc3ccccc32)cc1 (stereo unspecified) was run?
A: inconclusive: 11.2 µM [inhibitor, partial curve]

Q: With CSCCC(=O)N1CCN(CC(=O)N2CCCC2)CC1 as the compound, how does the Potency read?
A: active: 2.82 µM

Q: Which Potency does the source give for COc1ccc(C(=O)/C=C/Nc2ccc(S(=O)(=O)Nc3onc(C)c3C)cc2)cc1 here?
A: inconclusive: 10 µM [activator, partial curve]

Q: How did the Potency turn out when O=C(O)c1ccc(NS(=O)(=O)c2ccsc2C(=O)O)c(O)c1 was run?
A: inactive

Q: Which Potency does the source give for N#CC(c1ccc(Cl)cc1)c1ccc(Cl)nn1 (stereo unspecified) here?
A: inactive

Q: With O=C(Cc1ccccc1Cl)N1CCOCC1 as the compound, how does the Potency read?
A: inactive

Q: How did the Potency turn out when Cc1cc2c3c([nH]c2cc1S(=O)(=O)NCCCOC(C)C)CC(C)(C)CC3=O was run?
A: inconclusive: 35.5 µM [activator, single point]

Q: CCn1ccnc1CN(C)Cc1c(C(=O)N2CCCCCCC2)nc2ccc(Cl)cn12 was tested. Which Potency did it give?
A: inconclusive: 22.4 µM [inhibitor, single point]

Q: O=C(Nc1cccc(-c2nc3ccccc3s2)c1)C1=COCCO1 was tested. Which Potency did it give?
A: inactive

Q: For CN1N=C2c3ccccc3CCC2C1c1ccc(Cl)cc1 (stereo unspecified), which Potency is on record?
A: inactive

Q: How did the Potency turn out when CCCCC(=O)Nc1ccc(NC(=S)NC(=O)c2ccco2)cc1OC was run?
A: inactive

Q: Cc1ccc(-c2nnc(Sc3nc4ccccc4o3)c3ccccc23)cc1 was tested. Which Potency did it give?
A: active: 8.91 µM

Q: For Nc1cccc(Oc2cnccn2)c1, which Potency is on record?
A: inactive

Q: How did the Potency turn out when CC(C)Cn1c(-c2ccc(Br)o2)n[nH]c1=S was run?
A: active: 6.31 µM
